Here are results for 1 molecule from patent US20040019026A1, “Compounds useful for treating hypertriglyceridemia” (priority 2000, published 2004).

Each structure is given as a SMILES string. “And” between values parts separate entries of the source, which are not always exact repeats. Equal values may be shown once.

The test system of one series is Female CD-1 mice. Description: Dexamethasone-induced thymic and splenic atrophy, anti-glucocorticoid effect (Example 4). Format: in vivo. As to conditions: no DEX. On the procedure:
Female CD-1 mice were obtained from Charles River Laboratories, Kingston, N.Y. at 43-45 days of age. The mice were housed five per cage in plastic shoebox cages on corn cob bedding in the Fels Animal Facility at 72°±2° F. with 50%±5% humidity and twelve hours of alternate light and darkness. The mice had ad libitum access to Purina chain 5015 and acidified water for pretreatment.
Six days later, the mice were weighed, earmarked and redistributed into six groups for treatment: 1) a control group, 2) a group treated with dexamethasone (“DEX”), a glucocorticoid which induces thymic and splenic atrophy, 3) a group treated with 200 mg/kg 16α-fluoro-5-androsten-17-one (hereinafter “drug”), 4) a group treated with 400 mg/kg of, 5) a group treated with dexamethasone and 200 mg/kg drug and 6) a group treated with dexamethasone and 400 mg/kg drug. The treatment in the groups were as follows and were conducted simuitaneously.
The control group was intubated with 0.2 mL of sesame oil for three days. On the third day after commencement of the intubation, the mice were injected subcutaneously with 0.05 mL of absolute ethanol one hour after the last treatment with sesame oil.
The second group was intubated with 0.2 mL of sesame oil for three days. […]

Series [1] has as its system male BKS.Cg-m+/+Leprdb mice. Put plainly: Seminal vesicle weights, androgenic potency (Example 9). It counts as in vivo. From the text: Eight week old male BKS.Cg-m^+/+Lepr^db mice were obtained from Jackson Laboratories. These mice have a point mutation in the leptin receptor gene and produce a truncated receptor with impaired signaling capacity. These animals are severely insulin resistant and manifest an uncontrolled rise in blood sugar, severe depletion of the insulin-producing beta-cells of the pancreatic islets, and death by 10 months of age. The male animals also have very low plasma testosterone levels and as a consequence undeveloped seminal vesicle glands. Administration of androgens to these mice produces an increase in seminal vesicle weights similar to that seen in castrated males. Thus these animals can be used to assess androgenic potency of various compounds.
The mice were housed five per cage on Alphacel bedding with ad libitum access to Purina 5015 chow and acidified water. The mice were housed in the Central Animal Facility (6th floor, Pharmacy building) with twelve hours of alternating light and darkness.
A week later, the mice were treated subcutaneously (s.c.) with 0.05 mL fluasterone (16α-fluoro-5-androsten-17-one) suspended in an Emulphor-saline vehicle to give either a dose of 5 mg/kg s.c. or 20 mg/kg s.c. or intraperitoneally (i.p.) with 0.05 mL of fluasterone suspended in an Emulphor-saline vehicle to give a dose of 5 mg/kg. The Control mice received the Emulphor-saline vehicle s.c.
All the mice were anesthetized lightly with isoflurane before treatment with fluasterone to minimize the risk of stressing the mice while giving the s.c. dose. Their food was removed the afternoon before administration with drug and the chow was to the mice the next morning immediately after treatment. All the mice had their chow removed daily and restored just after fluasterone administration. During the week, the mice had access to chow for approximately 6½ hours, while on the weekends, the mice had approximately 4½ hours of access to chow. Mice were treated daily (weekdays and weekends).
Mice were treated daily with fluasterone, for about one month. Then the mice were sacrificed with an overdose of CO2. The seminal vesicles of each mouse were excised, cleaned of adventitia and the coagulating glands, and any liquid was pressed out and then the glands were weighed on a Mettler AE50 balance.

For `C[C@]12CCCCC1=CC[C@@H]1[C@@H]2CC[C@]2(C)C(=O)[C@H](F)C[C@@H]12` [fluasterone, 16α-fluoro-5-androsten-17-one], the “Body Weight” value with Female CD-1 mice (200 mg/kg drug intubated for three days) was 23.7 ± 0.9 gm; in the series with Female CD-1 mice (400 mg/kg drug intubated for three days) it was 24.7 ± 1.9 gm; in series [1] (5 mg/kg, i.p. daily about one month, individual mice) it was 40.6 gm and 50.6 gm and 46.0 gm and 39.9 gm; in series [1] (5 mg/kg, i.p., Average), 44.3 gm; in series [1] (5 mg/kg, s.c. daily about one month, individual mice), 47.5 gm and 38.2 gm and 46.5 gm and 44.8 gm and 43.8 gm; in series [1] (5 mg/kg, s.c., Average) it was 44.2 gm. Further, the “Body Weight” value in series [1] (20 mg/kg, s.c. daily about one month, individual mice) is 45.6 gm and 35.8 gm and 39.9 gm and 42.9 gm; in series [1] (20 mg/kg, s.c., Average), 41.1 gm.
